Our source for the survivor count and T/C values is PubChem BioAssay AID248 (DTP/NCI, 2004).

SMILES strings stand for the structures. The list shows only some results of the screen, not a fair sample: it gathers tests that were run many times, whatever their T/C, doses with no T/C, and many T/C values between a quarter and a half above the control. Further doses and runs are listed elsewhere. T/C: endpoint of the treated group in % of that of the vehicle group. Some entries give survivors of the animals treated and no T/C: the source holds a T/C of zero for them, seemingly a mark for toxic or unscored doses. Some survivor counts are full or nearly so, which does not show that the dose was tolerated: the source hardly ever lists a survival T/C far under the control, and the zero likely stands for such cases as well. Survivors were counted at the toxicity check, usually on the fifth day, unless a day is given; later deaths do not show. Schedules are NCI's codes, taken here to give the interval after Q, in days (D) or hours (H), and the number of doses after X. Some schedules carry Z or #; the key to these is not given. Some doses were run more than once; their values stand side by side, smallest first. For survival time, this PubChem deposit counts one and a half times the control or more as active, and values a quarter to a half above the control carry no call in these data; other NCI protocols may use other cut-offs. Some T/C values are followed by the survivors on the day toxicity was checked, most often the fifth; without a count, all were alive then.

This assay concerns L1210 leukemia ip in BDF1 mice, survival T/C. The assay can be described thus: NCI In Vivo Anticancer Drug Screen. Data for tumor model L1210 Leukemia (intraperitoneal) in B6D2F1 (BDF1) mice. The following applies: T/C endpoint: mean survival time, higher T/C = longer survival.
Where [1] appears, read: dose: 100.0 mg/kg/injection, schedule: Q04DX003 (ip), vehicle: saline with Tween-80.
[2] abbreviates: dose: 25.0 mg/kg/injection, schedule: Q01DX009 (ip), vehicle: saline with Tween-80.
Setting [3] is: dose: 50.0 mg/kg/injection, schedule: Q01DX009 (ip), vehicle: saline with Tween-80.
The mark [4] stands for this setting: dose: 100.0 mg/kg/injection, schedule: Q01DX009 (ip), vehicle: saline with Tween-80.
Where [5] appears, read: dose: 100.0 mg/kg/injection, schedule: Q04DX002 (ip), vehicle: saline with Tween-80.
Setting [6] is: dose: 200.0 mg/kg/injection, schedule: Q01DX009 (ip), vehicle: saline with Tween-80.
[7] abbreviates: dose: 200.0 mg/kg/injection, schedule: Q04DX002 (ip), vehicle: saline with Tween-80.
Where [8] appears, read: dose: 400.0 mg/kg/injection, schedule: Q01DX009 (ip), vehicle: saline with Tween-80.
Setting [9] is: dose: 400.0 mg/kg/injection, schedule: Q01DX009 (ip), vehicle: Klucel (hydroxypropylcellulose) (HPC).
Setting [10] is: dose: 100.0 mg/kg/injection, schedule: Q01DX001 (ip), vehicle: saline with Tween-80.
Setting [11] is: dose: 400.0 mg/kg/injection, schedule: Q04DX003 (ip), vehicle: Klucel (hydroxypropylcellulose) (HPC).
The mark [12] stands for this setting: dose: 200.0 mg/kg/injection, schedule: Q01DX001 (ip), vehicle: saline with Tween-80.
The mark [13] stands for this setting: dose: 400.0 mg/kg/injection, schedule: Q01DX001 (ip), vehicle: saline with Tween-80.
The mark [14] stands for this setting: dose: 400.0 mg/kg/injection, schedule: Q04DX003 (ip), vehicle: saline.
The mark [15] stands for this setting: dose: 75.0 mg/kg/injection, schedule: Q01DX001 (ip), vehicle: saline.
The mark [16] stands for this setting: dose: 150.0 mg/kg/injection, schedule: Q01DX001 (ip), vehicle: saline.
The mark [17] stands for this setting: dose: 300.0 mg/kg/injection, schedule: Q01DX001 (ip), vehicle: saline.

For the molecule `CC[N+](C)(CC)CCNC(=O)Nc1ccc(C)c(NC(=O)NCC[N+](C)(CC)CC)c1`, the survivor count (dose: 6.25 mg/kg/injection, schedule: Q01DX009 (ip), vehicle: saline) was 0 of 6; the survivor count (dose: 6.25 mg/kg/injection, schedule: Q04DX002 (ip), vehicle: saline) was 1 of 3; the survivor count (dose: 12.5 mg/kg/injection, schedule: Q04DX002 (ip), vehicle: saline) is 0 of 3 and 1 of 3; the survivor count (dose: 25.0 mg/kg/injection, schedule: Q04DX002 (ip), vehicle: saline) was 0 of 3; the survivor count (dose: 50.0 mg/kg/injection, schedule: Q04DX002 (ip), vehicle: saline) was 0 of 3; the survivor count (dose: 100.0 mg/kg/injection, schedule: Q04DX002 (ip), vehicle: saline) is 0 of 3. Besides, the survivor count is recorded as 0 of 3 (dose: 200.0 mg/kg/injection, schedule: Q04DX002 (ip), vehicle: saline) and 0 of 3 (dose: 400.0 mg/kg/injection, schedule: Q04DX002 (ip), vehicle: saline).

In the case of `CNC(=O)NO`, the T/C (dose: 100.0 mg/kg/injection, schedule: Q01DX Z (ip), vehicle: water) is 143 % of control.

Turning to `CCC1N2CCc3cc(OC)c(OC)cc3C2CCC1(O)Cc1ccccn1` (centres undefined), where the note is “dose: 400.0 mg/kg/injection, schedule: Q04DX003 (ip), vehicle: carboxymethylcellulose (CMC)”, the survivor count is 0 of 6.

With `CCOc1ccc(Nc2cc([N+](=O)[O-])ccc2C(=O)O)cc1`, the survivor count reads like this: under setting [1], 6 of 6; (dose: 400.0 mg/kg/injection, schedule: Q04DX003 (ip), vehicle: saline with Tween-80) 2 of 6.

Take `CN1COC(OC(C)(C)C)C(C)(C)C1` (centres undefined): the survivor count (dose: 200.0 mg/kg/injection, schedule: Q01DX001 (ip), vehicle: saline sonified) is 6 of 6.

With `CCOC(=O)c1ccc(NC(=O)Nc2ccc(NC(C)=O)cc2)cc1`, the survivor count runs as follows: under setting [2], 3 of 3; (dose: 25.0 mg/kg/injection, schedule: Q04DX002 (ip), vehicle: saline with Tween-80) 3 of 3; under setting [3], 3 of 3; under setting [4], 3 of 3; under setting [5], 3 of 3; under setting [1], 6 of 6. The survivor count reads like this: under setting [6], 3 of 3; under setting [7], 3 of 6; (dose: 400.0 mg/kg/injection, schedule: Q04DX002 (ip), vehicle: saline with Tween-80) 3 of 6. Besides, the T/C under setting [5] was 88, 96, 97 % of control [5 of 6 alive].

With `CCOc1ccccc1NCN1C(=O)c2ccccc2C1=O`, the survivor count was 6 of 6 under setting [2]; 6 of 6 under setting [3]; 3 of 3 under setting [5]; 6 of 6 under setting [6]; 6 of 6 under setting [8].

With `Nc1ccccc1CSc1nc2nc[nH]c2c(=O)[nH]1`, the survivor count is 3 of 6 (dose: 100.0 mg/kg/injection, schedule: Q01DX009 (ip), vehicle: Klucel (hydroxypropylcellulose) (HPC)); 0 of 6 (dose: 200.0 mg/kg/injection, schedule: Q01DX009 (ip), vehicle: Klucel (hydroxypropylcellulose) (HPC)); 0 of 6 under setting [9].

For `CC12CCCCC1SC(F)(F)C2(F)F` (centres undefined), the survivor count under setting [3] is 0 of 6.

On to `CN(C)NCC(O)COc1ccc(Cl)cc1` (centres undefined), for which the survivor count (dose: 400.0 mg/kg/injection, schedule: Q04DX002 (ip), vehicle: Klucel (hydroxypropylcellulose) (HPC)) is listed as 0 of 3.

As to `COc1ccc(C2(C(=O)O)CCCC2)cc1`, the survivor count under setting [8] is reported as 2 of 6.

Take `COc1cccc(/C=N\N=C\c2cccc(OC)c2O)c1O`: the survivor count under setting [10] is recorded as 6 of 6.

For the molecule `O=C(OCc1ccc2c(c1)OCO2)C1CC1`, the survivor count under setting [7] is 1 of 3.

With `Cc1nc(C(N)=O)c2nc3c4ccccc4c4ccccc4c3nn12`, the survivor count under setting [5] is listed as 3 of 3.

For `CCCCCCCCCCCCO[P+](=O)OCCCCCCCCCCCC`, the survivor count by setting is: (dose: 400.0 mg/kg/injection, schedule: Q01DX009 (ip), vehicle: saline sonified) 6 of 6; (dose: 500.0 mg/kg/injection, schedule: Q01DX Z (ip), vehicle: methylcellulose (MC)) 3 of 6.

For the molecule `O=c1ccc(=O)n(-c2ccccc2)[nH]1`, the T/C under setting [11] was 128 % of control.

For the molecule `C=CC[n+]1c(C)ccc2ccccc21`, the survivor count under setting [4] is 0 of 6, the survivor count under setting [12] is 1 of 6 and the survivor count under setting [13] is 0 of 6.

As for `NCc1ccc(F)cc1`, the survivor count under setting [14] is on record as 2 of 6.

As to `Clc1ccc(N2CCN(CCCN3CCN(c4cccc(Cl)c4)CC3)CC2)cc1`, the survivor count under setting [11] is on record as 2 of 6.

With `COC(=O)C1=COC(C)C2CN3CCc4c([nH]c5cc(OC)ccc45)C3CC12` (centres undefined), the survivor count runs as follows: (dose: 87.5 mg/kg/injection, schedule: Q01DX Z (ip), vehicle: other) 6 of 6; (dose: 175.0 mg/kg/injection, schedule: Q01DX Z (ip), vehicle: other) 5 of 6.

Take `CCN(CC)Cc1cc(C=O)ccc1O`: the survivor count by setting is: under setting [15], 0 of 6; under setting [16], 0 of 6; under setting [17], 0 of 6.

With `N=C(N)SCCSC(=N)N`, the survivor count (dose: 200.0 mg/kg/injection, schedule: Q04DX003 (ip), vehicle: saline sonified) is 2 of 6 and the survivor count (dose: 400.0 mg/kg/injection, schedule: Q04DX003 (ip), vehicle: saline sonified) was 0 of 6.

Consider `CN1CCN(C(CO)Cc2ccccc2)CC1` (centres undefined), for which the survivor count (dose: 400.0 mg/kg/injection, schedule: Q01DX001 (ip), vehicle: saline) is 0 of 4.

On to `O=[N+]([O-])c1ccc(N=NN(CCF)CCF)cc1`, for which the survivor count is given as 3 of 6 (dose: 12.5 mg/kg/injection, schedule: Q01DX Z (ip), vehicle: saline); 0 of 6 (dose: 25.0 mg/kg/injection, schedule: Q01DX Z (ip), vehicle: saline); 0 of 6 (dose: 50.0 mg/kg/injection, schedule: Q01DX Z (ip), vehicle: saline); 0 of 6 (dose: 100.0 mg/kg/injection, schedule: Q01DX Z (ip), vehicle: saline); 0 of 6 (dose: 300.0 mg/kg/injection, schedule: Q01DX Z (ip), vehicle: saline).

Regarding `c1ccc(NC2=NCCCN2)cc1`, the survivor count reads like this: under setting [10], 0 of 3; under setting [12], 0 of 3; under setting [13], 0 of 3.

On to `CC1(C)N=C(N)N=C(N)N1NC(=O)c1cccc(Cl)c1`, for which, under setting [14], the survivor count is 5 of 6.

In the case of `Cc1cc(OC(=O)N(C)C)n(-c2ccccc2)n1`, the survivor count is, setting by setting: under setting [15], 0 of 6; under setting [16], 0 of 6; under setting [17], 0 of 6.

On to `CCCCCCCCCCCS(=O)(=O)C(CCOS(C)(=O)=O)COS(C)(=O)=O` (centres undefined), for which the survivor count under setting [9] is 3 of 6.

Consider `CC(C)([CH2][Sn]([Cl])([Cl])[CH2]C(C)(C)c1ccccc1)c1ccccc1`, for which the survivor count (dose: 1.56 mg/kg/injection, schedule: Q04DX002 (ip), vehicle: saline with Tween-80) was 3 of 3; the survivor count (dose: 6.25 mg/kg/injection, schedule: Q04DX002 (ip), vehicle: saline with Tween-80) is 3 of 3; the survivor count (dose: 12.5 mg/kg/injection, schedule: Q04DX002 (ip), vehicle: saline with Tween-80) is 0 of 3.
